The record followed here is publication PMC10053439.

Chains of the proteins cited; added tags and fusions are not shown. Lines headed by an entry give the natural chain unless they say otherwise; changes in a name come on top. Residues count along the entry.
UniProt Q96RL7, residues 1869-2481: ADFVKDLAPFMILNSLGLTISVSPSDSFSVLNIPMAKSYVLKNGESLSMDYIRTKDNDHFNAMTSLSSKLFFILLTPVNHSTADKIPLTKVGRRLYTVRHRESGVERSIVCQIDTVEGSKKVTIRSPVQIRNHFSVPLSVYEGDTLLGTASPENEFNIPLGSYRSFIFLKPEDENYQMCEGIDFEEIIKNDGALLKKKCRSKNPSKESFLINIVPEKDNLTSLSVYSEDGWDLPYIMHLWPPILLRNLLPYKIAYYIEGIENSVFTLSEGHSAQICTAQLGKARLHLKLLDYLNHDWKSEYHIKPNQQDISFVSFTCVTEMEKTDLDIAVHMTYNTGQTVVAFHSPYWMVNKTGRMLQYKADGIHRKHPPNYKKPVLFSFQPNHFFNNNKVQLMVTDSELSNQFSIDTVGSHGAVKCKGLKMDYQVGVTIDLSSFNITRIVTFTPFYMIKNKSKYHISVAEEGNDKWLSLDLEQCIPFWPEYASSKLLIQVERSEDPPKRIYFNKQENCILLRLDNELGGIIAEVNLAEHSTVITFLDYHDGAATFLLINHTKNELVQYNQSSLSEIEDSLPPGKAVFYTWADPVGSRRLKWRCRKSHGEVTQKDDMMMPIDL
UniProt Q9Y5X3: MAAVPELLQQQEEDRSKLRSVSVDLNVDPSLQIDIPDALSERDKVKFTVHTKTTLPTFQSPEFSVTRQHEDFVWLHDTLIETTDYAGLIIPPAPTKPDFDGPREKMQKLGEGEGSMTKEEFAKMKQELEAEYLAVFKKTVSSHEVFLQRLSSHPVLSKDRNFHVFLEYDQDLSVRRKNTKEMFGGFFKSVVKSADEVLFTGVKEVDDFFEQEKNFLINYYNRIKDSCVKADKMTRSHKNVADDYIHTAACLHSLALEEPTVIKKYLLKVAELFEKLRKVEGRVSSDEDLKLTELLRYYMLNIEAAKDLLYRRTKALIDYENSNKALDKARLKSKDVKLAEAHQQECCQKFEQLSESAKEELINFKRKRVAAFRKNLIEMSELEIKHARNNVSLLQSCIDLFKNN

For this test, the target named is LexA-VPS13A(VAB), LexA DNA-binding domain fusion to the VAB domain of VPS13A (human) (UniProt Q96RL7). Put plainly: two-hybrid; LexA-VPS13A(VAB) as bait, GAD-SNX5 fusions as prey in S. cerevisiae TAT7; screen of a human fetal liver cDNA library (His+ selection with 5 mM 3-AT); β-galactosidase X-gal filter lift assays developed for 2 h and liquid assays in Miller units on the same transformants.

No constants are given. Whether binding was seen depends on the method and setting. A result given as binding can be weak or reduced; the word gives no strength.

Take “GAD-SNX5 truncated derivative containing only the Phox domain (from UniProt Q9Y5X3) (domain or fragment)”: the binding entry is “binds”.
